Source: PubChem BioAssay AID540303 (National Center for Advancing Translational Sciences (NCATS), 2011)
Among all 330,000 compounds or so, about 1,000 (0.3%) were called active. Inconclusive results, whose numbers are uncertain, are shown with a selection of clear calls. Calls follow the shape of the dose curve; as a rule, active = well fitted inhibition curve with a large enough effect; inconclusive = small, poorly fitted or top-dose-only effect; inactive = no such curve, though single readings can be large or run the other way; tested in mouse RAW 264.7 cells. Potencies beside an inconclusive call are fits to weak or partial responses and may not hold up.

experiment: qHTS for Inhibitors of Cell Surface uPA Generation; conditions: cell surface uPA generation assay; series mostly up to 38.3 µM; also: nearly all actives have a fitted effect of over 55% in size
Method in brief: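 RAW 264.7, 4000 cells/well, o/n 37 C; cpd 1:5 dilution, up to 38.3 uM final; 24 h 37 C/5% CO2 with reagent; ATP-Lite lum. High ATP = LF entry blocked.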
Potency is read from the fitted curve at half-maximal effect.

SMILES | Potency
COc1cccc(NC(=O)CC(=O)c2ccc([N+](=O)[O-])cc2)c1 | inconclusive: 15.8 µM [inhibitor, partial curve, poor fit]
O=C(O)c1cc(-c2ccc3ccccc3c2)nc2ccc(F)cc12 | inconclusive: 7.08 µM [inhibitor, partial curve, poor fit]
N#C/C(=C\c1coc2ccc(O)cc2c1=O)C(=O)Nc1nc2ccccc2s1 | inconclusive: 12.6 µM [inhibitor, single point]
Nc1nc(COC(=O)C2CC(=O)N(Cc3ccccc3Cl)C2)nc(Nc2ccccc2)n1 (configuration not stated) | inconclusive: 5.01 µM [inhibitor, single point]
CCOc1cccc(/C=C/c2cc(C(=O)O)c3ccccc3n2)c1OC | inconclusive: 1.12 µM [inhibitor, full curve, poor fit]
Cc1ccccc1NC(=O)COC(=O)CCc1c[nH]c2ccccc12 | inconclusive: 4.47 µM [inhibitor, partial curve, poor fit]
CC(Oc1ccc(Br)cc1Cl)C(=O)Nc1ccncc1 (configuration not stated) | inconclusive: 8.91 µM [inhibitor, single point]
O=[N+]([O-])c1cc(C(F)(F)F)ccc1NCCc1ccccn1 | inconclusive: 7.08 µM [inhibitor, partial curve, poor fit]
Cc1cccc(NC(=O)c2cc(-c3cc(C)cc(C)c3O)n[nH]2)c1 | inconclusive: 12.6 µM [inhibitor, single point]
CCc1ccc(C(=O)c2cncc(Br)c2)cc1 | inactive
COc1ccc(-c2noc(-c3ccoc3C)n2)cc1 | inconclusive: 28.2 µM [inhibitor, single point]
CCN(CC)P(=O)(Nc1cccc(C(F)(F)F)c1)c1ccc(N(C)C)cc1NC(=O)c1ccco1 (configuration not stated) | inconclusive: 28.2 µM [inhibitor, single point]
Fc1ccc(-c2cn3ccccc3n2)cc1 | active: 10 µM
CC1CCN(Cc2ccc(-c3nnn(CC(=O)Nc4ccccc4Cl)n3)cc2)CC1 | inactive
CC(=O)c1ccc(N/N=C(/C(N)=O)C2=NC(C)(C)Cc3ccccc32)cc1 | inactive
Cn1cnc([N+](=O)[O-])c1Sc1nnc(-c2cccnc2)n1C | inconclusive: 6.31 µM [inhibitor, partial curve]
O=C1N[C@@H](Cc2ccccc2)COC(=O)[C@@H](Cc2ccc(F)cc2)CC/C=C/C[C@@H]1CC(=O)N(CCO)Cc1ccccc1 | inconclusive: 12.6 µM [inhibitor, single point]
Cc1oc(-c2ccoc2)nc1CN(CC1CCC(=O)N1)C(C)C (configuration not stated) | inactive
Cc1cccc(N=C2C(=O)Nc3c(Cl)cccc32)c1 | inconclusive: 28.2 µM [inhibitor, single point]
COC(=O)c1ccc2c(=O)n(-c3ccccc3F)c(=S)[nH]c2c1 | inactive
CCn1cc(C(=O)NC2CCCCCC2)c(=O)c2ccc(C)nc21 | inconclusive: 11.2 µM [inhibitor, partial curve, poor fit]

Individual results from the results shown.
Under Potency, Fc1ccc(-c2cn3ccccc3n2)cc1 is entered as active: 10 µM
Under Potency, O=C(O)c1cc(-c2ccc3ccccc3c2)nc2ccc(F)cc12 is entered as inconclusive: 7.08 µM [inhibitor, partial curve, poor fit]

Next entries follow:

SMILES | Potency
CS(=O)(=O)c1ncc(Cl)c(C(=O)Nc2ccc(N3CCOCC3)cc2)n1 | inconclusive: 3.16 µM [inhibitor, partial curve]
CCC1=Nc2cc(C(=O)NCCN3CCCC3)ccc2Sc2ccccc21 | inactive
O=C/C(=C\Nc1ccccn1)c1nc2cc(Cl)ccc2o1 | inactive
COc1ccc(NS(=O)(=O)c2cc(OC)ccc2NC(=O)c2cc(C)oc2C)cc1 | inactive
COCCn1c(-c2ccc(C)cc2)nc2c(c(=O)c3ccccc3n2C)c1=O | inconclusive: 0.0178 µM [inhibitor, full curve, poor fit]
COc1cccc(C(=O)CSc2nc3ccccc3n2CC(=O)N(C(C)C)C(C)C)c1 | inactive
CCOc1cc(/C=C/C(=O)c2ccc(C)cc2)ccc1OCC(=O)N(C)C | inconclusive: 10 µM [inhibitor, partial curve, poor fit]
COc1ccc([N+](=O)[O-])cc1N(CC(=O)NCc1ccco1)S(C)(=O)=O | inactive
COc1ccc(S(=O)(=O)Cc2ccc(C(=O)N3CCN(c4cccc(C)c4)C(C)C3)o2)cc1 (configuration not stated) | active: 5.62 µM
Cc1ccc(C)c(NC(=S)N/N=C2\CCc3ccccc32)c1 | inconclusive: 12.6 µM [inhibitor, partial curve, poor fit]
CC[C@]1(C(=O)OC)[C@H]2C(=O)N(C)C(=O)[C@H]2[C@H]2CN=C(SCc3ccc(OC)cc3)N21 | inconclusive: 15.8 µM [inhibitor, partial curve, poor fit]
Cc1cc(C)c2nc(NNC(=O)c3ccc(S(=O)(=O)N4CC(C)CC(C)C4)cc3)sc2c1 (configuration not stated) | inconclusive: 10 µM [inhibitor, single point]
COc1ccc(N2C(=O)C3CCCCC3C2=O)cc1NC(=O)c1ccccc1 (configuration not stated) | inactive
CC(=O)C1=NN(c2ccc(Cl)cc2)C(c2ccc3c(c2)OCO3)N(C(C)=O)N1C (configuration not stated) | inconclusive: 11.2 µM [inhibitor, partial curve, poor fit]
CC1=NN(C(=O)c2ccccc2Cl)C(O)(c2cccnc2)C1 (configuration not stated) | inactive
CC(=O)N1c2ccc(S(=O)(=O)N3CCCC3C(=O)Nc3cccc(F)c3)cc2CC1C (configuration not stated) | inconclusive: 31.6 µM [inhibitor, single point]
COc1ccc(CC(=O)N2CCN(S(=O)(=O)c3cc(Cl)ccc3Cl)CC2)cc1 | inconclusive: 7.08 µM [inhibitor, single point]
N#C/C(=C\c1cccnc1)c1ccc(Br)cc1 | inconclusive: 7.08 µM [inhibitor, single point]
CCCn1c(SCC(=O)N(C2CCCCC2)C2CCS(=O)(=O)C2)n[nH]c1=O (configuration not stated) | inconclusive: 14.1 µM [inhibitor, partial curve, poor fit]
CN1CCN(C(=O)/C=C/c2ccc([N+](=O)[O-])o2)CC1 | inconclusive: 2.82 µM [inhibitor, partial curve, poor fit]
Cc1nc2c3cc(Cl)ccc3n(CCN3CCCCC3)c2s1 | inconclusive: 8.91 µM [inhibitor, partial curve, poor fit]
